This is an account of results in patent US20220249563A1 (LEGEND BIOTECH IRELAND, published 2022).

Sequences of proteins named here, by UniProt entry; tags and fusion partners are left off. A change or cut given only in a name is not applied to a line headed by its entry. A line that says so, or that is headed by a name, gives the form on record, which may keep a tag or linker. Residues count along the entry.
UniProt Q9NYJ7, residues 27-466: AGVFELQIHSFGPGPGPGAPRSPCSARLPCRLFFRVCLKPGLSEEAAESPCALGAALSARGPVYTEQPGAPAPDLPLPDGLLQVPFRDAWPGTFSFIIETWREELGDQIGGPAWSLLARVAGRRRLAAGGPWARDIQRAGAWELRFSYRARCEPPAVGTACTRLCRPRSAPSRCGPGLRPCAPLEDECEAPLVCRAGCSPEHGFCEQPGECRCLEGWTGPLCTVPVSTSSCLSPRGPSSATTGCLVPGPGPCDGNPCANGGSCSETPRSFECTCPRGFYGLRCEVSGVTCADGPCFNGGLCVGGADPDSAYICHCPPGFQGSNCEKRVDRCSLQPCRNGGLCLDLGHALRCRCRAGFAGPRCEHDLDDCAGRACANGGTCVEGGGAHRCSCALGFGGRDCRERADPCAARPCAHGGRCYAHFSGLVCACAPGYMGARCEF
rhesus DLL3 (F6TFV4, form named): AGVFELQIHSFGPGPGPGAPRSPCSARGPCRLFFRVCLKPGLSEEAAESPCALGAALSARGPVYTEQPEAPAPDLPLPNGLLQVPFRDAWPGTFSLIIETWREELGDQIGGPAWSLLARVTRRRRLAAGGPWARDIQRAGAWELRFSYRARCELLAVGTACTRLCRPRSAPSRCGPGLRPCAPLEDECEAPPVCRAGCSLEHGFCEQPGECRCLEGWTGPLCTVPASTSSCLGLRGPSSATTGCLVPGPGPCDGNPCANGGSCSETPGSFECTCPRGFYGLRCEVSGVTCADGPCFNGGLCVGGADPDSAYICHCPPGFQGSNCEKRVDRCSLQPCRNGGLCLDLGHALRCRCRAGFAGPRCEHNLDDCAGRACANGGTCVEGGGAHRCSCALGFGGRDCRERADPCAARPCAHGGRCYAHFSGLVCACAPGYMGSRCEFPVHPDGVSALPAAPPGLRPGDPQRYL

Results are given in words; binding and its absence hold for the method and conditions named. Some binding calls cover weakened binding; strength is not graded here.

The target of test [1] is extracellular domain of human DLL3 protein (aa27-466) having an N-terminal FLAG tag (AdipoGen, AG-40B-0151) (human) (UniProt Q9NYJ7). Description: ELISA (protein), FACS (cells).
The target in a further test is rhesus DLL3 (rhesus) (UniProt F6TFV4). Description: ELISA (protein), FACS (cells). (In general: ELISA stands for enzyme-linked immunosorbent assay.)

B1: AS64606 (VHH)
VHH: EVQLAESGGGSVQAGGSLRLSCAVSGYTSRSNYMGWFRQAPGKEREGVALIYTRGGSTYYASSVKGRFTISQDSAKKTYLQMNSVKPEDTAMYYCALRLDEKMYWGQGTQVTVSS
With B1, the binding entry (in test [1]; with rhesus DLL3 (rhesus)) was “binds” throughout.

B2: AS69443 HCAb (Fc fusion, not shown: a dimerising Fc or GST)
chain: EVQLAESGGGSVQAGGSLRLSCSASGFTFDDSDMAWYRQAPGDGCDLVSTISSDGSTYYADSVKGRFTISQDNAKNTVYLQMHSLKPEDTAVYYCAADFLTGFYYSDSPHPAPCSASDFGYWGQGTQVTVSS
As to B2, the binding entry with rhesus DLL3 (rhesus) is on record as “binds”.

B3: AS75387 (VHH)
VHH: QVHLVESGGGSVQAGGSLRLSCAASGYPYSSPCMAWFRQAPGKEREGVLVAYTGGDIQYLTDSVKGRFTISRDNAKNTVYLQMNSLKPEDTAMYYCAADLRLPRAGGCAYSYWGQGTQVTVSS
notes: camel sdAb; crude E. coli supernatant
Regarding B3, the binding entry in the test with rhesus DLL3 (rhesus) is reported as “binds”.

B4: AS63937 (VHH)
VHH: QVKLVESGGGSVQAGGSLRLSCAASGSTISSRPMAWFRQAPGKEREGVACIHTGLGRTYYADSVKGRFTISQDNAKNTVYLQVNSLKPEDTAMYYCAADSRRPCMVAAGYTYWGQGTQVTVSS
notes: as for B3
B4: the binding entry in the test with rhesus DLL3 (rhesus) is reported as “binds”.

B5: AS69527 (VHH)
VHH: EVQLAESGGGSVQAGGSLRLSCVASRYTFSSTCMAWFRQAPGKEREEVAAIYTDDGSTWYADSVKGRFTISRDNAKNTVYLQMNSLKPEDTAMYYCAARRWACPRVGSWHEFAYWGQGTQVTVSS
notes: as for B3
Consider B5, for which the binding result with rhesus DLL3 (rhesus) is on record as “binds”.

B6: AS75695 (VHH)
VHH: QVRLVESGGGSVQAGGSLRLSCVASGYTVSAYCMGWFRQVLGKGRERIAFIDAGGATIYADPVKGRFTISKDNAKNTLYLQMNSLKPEDTAMYYCVADRRGRVRRCEYNAWGQGTQVTVSS
notes: as for B3
Consider B6, for which the binding entry with rhesus DLL3 (rhesus) was “binds”.

B7: AS69498 (VHH)
VHH: QVQLQESGGGSVQAGGSLRLSCEASGNTYSSNYMAWFRQAPGKEREEVAVIYTRGGHTYYIDSVRGRFTISQDNAKNTVYLQMNSLKPEDTAMYYCAASSRHRLRLSDPRDYDYWGQGTQVTVSS
Turning to B7, the binding result (in test [1]; with rhesus DLL3 (rhesus)) was “binds” each time.

B8: AS63993 (VHH)
VHH: QVKLVESGGGLVQAGGSLRLSCTVSGFTFDDLVMAWFRQAPGKERQLVSLVATAGNSVYADSVKGRFTLSRDNAHSTAYLQMNGLKPEDTAMYYCAARTDSEHAFKFWGQGTQVTVSS
notes: as for B3
Regarding B8, the binding result in the test with rhesus DLL3 (rhesus) is “binds”.

B9: AS76169 (VHH)
VHH: QVHLMESGGGSVQAGGSLRLSCAASGYIYSSFCMGWFRQAPGKEREVVAYIRDNIMTSYTDSVKGRFTISKDNAKRTLYLQMNGLKPEDTGMYYCAVDRGGYANSCAVAARYDYWGRGTQVTVSS
notes: as for B3
Regarding B9, the binding result in the test with rhesus DLL3 (rhesus) is reported as “binds”.

B10: AS63956 (VHH)
VHH: QVHLVESGGGLVQAGGSLRLSCAASGFTYSNCCMRWYRQAPGKARELVSLINSSGGTYYADSVRGRFTISKDNAKNTLYLQMNSLKPEDTAMYYCAAYQAKYCSGPCAPPTDWGQGTQVTVSS
notes: as for B3
For the molecule B10, the binding result with rhesus DLL3 (rhesus) is “binds”.

B11: AS75376 (VHH)
VHH: QVQLKESGGGSVQAGGSLRLSCAASGYTYSSHSMGWFRQAPGKEREGVAVIYTGDGSTYYADSVKGRFTISQDNAKNTVYLQMNSLKPEDTAMYYCAADPNPDYMLPFRPSRRSWWGQGTQVTVSS
notes: as for B3
On to B11, for which, in the test with rhesus DLL3 (rhesus), the binding entry is on record as “binds”.

B12: AS64071 (VHH)
VHH: QVHLMESGGGSVQAGGSLRLSCVASGNTYRLNSMGWFRQAPGKEREGVAFIVMIRGTTYYGASVKGRFTISQDNAQTTVYLQMSSLKPEDTAMYYCAASTKDQFYVFNPIGYDSWGQGTQVTVSS
notes: as for B3
With B12, in the test with rhesus DLL3 (rhesus), the binding result is on record as “binds”.

B13: AS68280 (VHH)
VHH: QVQLVESGGGSVHPGGSLRLSCAASGSTYSSNYLGWFRQAPGKGRDWVAAISTGDGATAYADSVKGRFTISQDNAKNTVYLQMNSLKLEDSAMYYCAAARGRFIDWTKATQYDYWGQGTQVTVSS
notes: as for B3
Take B13: the binding entry with rhesus DLL3 (rhesus) is on record as “binds”.

B14: AS64060 (VHH)
VHH: QVKLVESGGGSVQAGGSLRLSCAASGSTYCTYRMSWFRQAPGKEREFVAVIDSGGSTSYADSVKGRFTISRDNAKNTVYLQMNSLKPEDTAMYYCKTDPTIGCPQTYRYNYWGQGTQVTVSS
notes: as for B3
Take B14: the binding result with rhesus DLL3 (rhesus) is given as “binds”.

B15: AS64006 (VHH)
VHH: QVHLVESGGGSVQAGGSLRLSCEVSGYTGDTTYIGWFRQAPGKEREGVALIYTSGTSEYYADSVKGRFIISRDNAKNTVYLQMNSLKPEDTAMYYCGARSRTMMYWGQGTQVTVSS
notes: as for B3
For the molecule B15, the binding entry with rhesus DLL3 (rhesus) was “binds”.

B16: AS68355 (VHH)
VHH: QMQLVESGGDSVQAGGSLRLSCAASGYTYSGVCMGWFRQAPGKEREGVAAIDSDGSTSYADSVKGRFTISKDNAKNTLYLQMNSLKPEDTAMYYCAAAIVGGFNAYCSGGYVLDFGAWGQGTQVTVSS
notes: as for B3
For the molecule B16, in the test with rhesus DLL3 (rhesus), the binding entry is given as “binds”.

B17: AS63931 HCAb (Fc fusion, not shown: a dimerising Fc or GST)
chain: EVQLAESGGGSVQAGGSLRLSCAGSFSGYGVSTMAWFRQAPGKEREGVAAITVGSGNTYYADSVTGRFTISRDNAKRTVYLQMNSLKPEDTAMYYCAAGWLSGGSWHVPGRYNYWGQGTQVTVSS
Take B17: the binding entry with rhesus DLL3 (rhesus) was “binds”.

B18: AS63965 (VHH)
VHH: QVQLVESGGGSVQAGGSLRLSCVASGYSSGSCRMGWYRQAPGKERELVSKVISDGTTVYADSVKGRFTLSQGNAKNTVYLQMSSLLPEDTAMYYCNAWCREYPGGILNNGWGQGTQVTVSS
notes: as for B3
With B18, the binding result with rhesus DLL3 (rhesus) is on record as “binds”.

B19: AS69500 (VHH)
VHH: QVRLVESGGGSVQAGGSLRLSCAADRYTYSSACMGWFRQAPGKEREGVASIFTGTGGSTYYADSVKGRFTISQDNAKNTVYLQMNSLKPEDTAIYYCAARAFQVGYCYLRTDVYNYWGQGTQVTVSS
notes: as for B3
For B19, the binding entry with rhesus DLL3 (rhesus) is recorded as “binds”.
